Results published in the supplement of paper PMC7125110.
± gives the standard error. The uncertainty is large for many entries.

B1: glmS ribozyme (parent)
chain: AUAAAAGCGCCAGAACUACAGAAAUGUAGUUGACGAGGAGGAGGUUUAUCGAAUUUUCGGCGGAUGCCUCCAAA

Variants of: B1
Test: KM; higher = weaker cofactor use; RNA array
Settings: with glucosamine-6-phosphate
Procedure, shortened: (§1)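 kobs was derived by fitting per-tile medians to one- or two-exponential decays after normalising signals to baseline and to non-cleaving reference variants. Those signals came from barcoded ribozyme variants transcribed in situ by E. coli RNA polymerase on sequenced MiSeq chips, followed through a hybridised Cy3 probe at 37 °C and imaged over ~14 h. Glucosamine-6-phosphate (40 μM to 10 mM) in HEPES/KCl/Mg(OAc)2 buffer was flowed in. Weighted Michaelis–Menten fits across concentrations then gave kcat and KM.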

| Variant | KM [µM] |
| --- | --- |
| AUAAAAGCGCCAGACCUACAGAAAUGUAGUUCACGAGGAGGAGGUUUAUCGACUUUUCGGCGGAUGCCUCCAAA [A15C G32C A53C] | 235 ± 150 |
| AUAAAAGCGCCAGAGCUACAGAAAUGUAGUUGACGAGGCGGAGGUUUAUCGAAUUUUCGGCGGAUGCCUCCAAA [A15G A39C] | 4930 ± 2900 |
| AUAAAAGCGCCAGAUCUACAGAAAUGUAGUUGACGAGGAGGAGGUUUAUCGAAUUUUCGGCGGAUGCCACCAAA [A15U U69A] | 253 ± 250 |
| AUAAAAGCGCCAGGACUACAGAAAUGUAGUUGACGAUGAGGAGGUUUAUCGAAUUUUCGGCGGAUGCCUCCAAA [A14G G37U] | 1680 ± 470 |
| AUAAAAGCGCCAGAGCUACAGAAAUGUAGUUGACGAGGAGGAGGUUUAUCGAAUUUUCGGGGGAUGCCUCCAAA [A15G C61G] | 59.5 ± 37 |
| AUAAAAGCGCCAGGACUACAGAAAUGUAGUUGACGAGGAGCAGGUUUAUCGAAUUUUCGGCGGAUGCCUCCAAA [A14G G41C] | 3070 ± 1800 |
| AUAAAAGCGCCAGAUCUACAGAAAUGUAGUUGACGAGGAGGAGGUUUAUCGACUUUUCGGCGGAUGCCUCCAAA [A15U A53C] | 798 ± 600 |
| AUAAAAGCGCCAGACCUACAGAAAUGUAGUUGACGAGGAGGAGGUUUAUCUAAUUUUCGGCGGAUGCCUCCAAA [A15C G51U] | 34.2 ± 33 |
| AUAAAAGCGCCAGAUCUACAGAAAUGUAGUUGUCGAGGAGGAGGUUUAUCGAAUUUUCGGCGGAUGCCUCCAAA [A15U A33U] | 751 ± 530 |
| AUAAAAGCGCCAGAAAUACAGAAAUGUAGUUUACGAGGAGGAGGUUUAUCGAAUUUUCGGCGGAUGCCUCCAAA [C16A G32U] | 6390 ± 1500 |
| AUAAAAGCGCCAGAAAUACAGAAAUGUAGUUGACGAGGAGGAGGUUGAUCGAAUUUUCGGCGGAUGCCUCCAAA [C16A U47G] | 631 ± 230 |
| AUAAAAGCGCCAGAAGUACAGAAAUGUAGUUGACGAGGAGGAGGUUUAUCGAAUUUUCGGCGGAUGCCUCCAAA [C16G] | 2880 ± 1100 |
| AUAAAAGCGCCAGAAAUACAGAAAUGUAGUUGACGAGUAGGAGGUUUAUCGAAUUUUCGGCGGAUGCCUCCAAA [C16A G38U] | 26.3 ± 25 |
| AUAAAAGCGCCAGAGCUACAGAAAUGUAGUUGACGAGGAGGAGGUUUAUCGAAUUUUCGUCGGAUGCCUCCAAA [A15G G60U] | 171 ± 100 |
| AUAAAAGCGCCAGUACUACAGAAAUGUAGUUGACGAGGUGGAGGUUUAUCGAAUUUUCGGCGGAUGCCUCCAAA [A14U A39U] | 3050 ± 1200 |
| AUAAAAGCGCCAGCACUACAGAAAUGUAGUUGACGAGGAGUAGGUUUAUCGAAUUUUCGGCGGAUGCCUCCAAA [A14C G41U] | 1570 ± 810 |
| AUAAAAGCGCCAGAUCUACAGAAAUGUAGUUGACGAGGAGGAGGUCUAUCGAAUUUUCGGCGGAUGCCUCCAAA [A15U U46C] | 1290 ± 210 |
| AUAAAAGCGCCAGGACUACAGAAAUGUAGUUGACGAGGAGGAGGUUUAUCGAAUUUUCGGCGGGUGCCUCCAAA [A14G A64G] | 2030 ± 810 |
| AUAAAAGCGCCAGACCUACAGAAAUGUAGUUGACGAGGAGGGGGUUUAUCGACUUUUCGGCGGAUGCCUCCAAA [A15C A42G A53C] | 3990 ± 2900 |
| AUAAAAGCGCCAGUGCUACAGAAAUGUAGUUGACGAGGAGGAAGUUUAUCGAAUUUUCGGCGGAUGCCUCCAAA [A14U A15G G43A] | 12500 ± 10000 |
| AUAAAAGCGCCAGACCUACAGAAAUGUAGUUGACGAGGAGGAGGUUUUUCGAAUUUUCGGCGGAUGCCUCCAAA [A15C A48U] | 2840 ± 1100 |
| AUAAAAGCGCCAGUACUACAGAAAUGUAGUUCACGAGGAGGAGGUUUAUCGAAUUUUCGGCGGAUGCCUCCAAA [A14U G32C] | 3050 ± 580 |
| AUAAAAGCGCCAGGACUACAGAAAUGUAGUUGACGAGGAGGAGGUUUAUCGACUUUUCGGCGGAUGCCUCCAAA [A14G A53C] | 1450 ± 1100 |
| AUAAAAGCGCCAGAGCUACAGAAAUGUAGUUGACGAGGAGGAGGUUUAUCGAAUUUUCGGCGGAUACCUCCAAA [A15G G66A] | 502 ± 320 |
| AUAAAAGCGCCAGUACUACAGAAAUGUAGUUGACGAGGAGGAGGUUUAUCGGAUUUUCGGCGGAUGCCUCCAAA [A14U A52G] | 2840 ± 1300 |
| AUAAAAGCGCCAGAUCUACAGAAAUGUAGUUGACGAGGAGGAGGUUUAUCGAAUUUUCGGAGGAUGCCUCCAAA [A15U C61A] | 829 ± 70 |
| AUAAAAGCGCCAGAUCUACAGAAAUGUAGUUGACGAGGAGGAGGUUUAUCGAAUUUUCGGUGGAUGCCUCCAAA [A15U C61U] | 14.9 ± 12 |
| AUAAAAGCGCCAGAGCUACAGAAAUGUAGUUGACGAGGAGGAGGUUGAUCGAAUUUUCGGCGGAUGCCUCCAAA [A15G U47G] | 617 ± 360 |
| AUAAAAGCGCCAGAGCUACAGAAAUGUAGUUGACGAGGAGGAGGUUUAUCGAAUUUUCGGCGGUUGCCUCCAAA [A15G A64U] | 3870 ± 820 |

A section from the list above:

| Variant | KM [µM] |
| --- | --- |
| AUAAAAGCGCCAGAGCUACAGAAAUGUAGUUGACGAGGAGGAGGUUUAUCGAAUUUUCGGGGGAUGCCUCCAAA [A15G C61G] | 59.5 ± 37 |
| AUAAAAGCGCCAGGACUACAGAAAUGUAGUUGACGAGGAGCAGGUUUAUCGAAUUUUCGGCGGAUGCCUCCAAA [A14G G41C] | 3070 ± 1800 |
| AUAAAAGCGCCAGAUCUACAGAAAUGUAGUUGACGAGGAGGAGGUUUAUCGACUUUUCGGCGGAUGCCUCCAAA [A15U A53C] | 798 ± 600 |

Variants of: B1
Test: self-cleavage kobs at 10000 uM GlcN6P; higher = faster cleavage; RNA array
Settings: with glucosamine-6-phosphate
Procedure, shortened: as §1

| Variant | self-cleavage kobs at 10000 uM GlcN6P [s⁻¹] |
| --- | --- |
| AUAAAAGCGCCAGACCUACAGAAAUGUAGUUCACGAGGAGGAGGUUUAUCGACUUUUCGGCGGAUGCCUCCAAA [A15C G32C A53C] | 2.11e-05 ± 1.4e-05 |

Variants of: B1
Test: self-cleavage kobs at 160 uM GlcN6P; higher = faster cleavage; RNA array
Settings: with glucosamine-6-phosphate
Procedure, shortened: as §1

| Variant | self-cleavage kobs at 160 uM GlcN6P [s⁻¹] |
| --- | --- |
| AUAAAAGCGCCAGAUCUACAGAAAUGUAGUUGACGAGGAGGAGGUUUAUCGAAUUUUCGGCGGAUGCCACCAAA [A15U U69A] | 2.86e-05 ± 1.5e-05 |
| AUAAAAGCGCCAGAGCUACAGAAAUGUAGUUGACGAGGAGGAGGUUUAUCGAAUUUUCGGCGGUUGCCUCCAAA [A15G A64U] | 2.28e-05 ± 1.7e-05 |

Variants of: B1
Test: self-cleavage kobs at 40 uM GlcN6P; higher = faster cleavage; RNA array
Settings: with glucosamine-6-phosphate
Procedure, shortened: as §1

| Variant | self-cleavage kobs at 40 uM GlcN6P [s⁻¹] |
| --- | --- |
| AUAAAAGCGCCAGCACUACAGAAAUGUAGUUGACGAGGAGUAGGUUUAUCGAAUUUUCGGCGGAUGCCUCCAAA [A14C G41U] | 2.28e-05 ± 1.5e-05 |
| AUAAAAGCGCCAGAUCUACAGAAAUGUAGUUGACGAGGAGGAGGUCUAUCGAAUUUUCGGCGGAUGCCUCCAAA [A15U U46C] | 1.95e-05 ± 1.7e-05 |
| AUAAAAGCGCCAGACCUACAGAAAUGUAGUUGACGAGGAGGGGGUUUAUCGACUUUUCGGCGGAUGCCUCCAAA [A15C A42G A53C] | 1.96e-05 ± 1.8e-05 |
| AUAAAAGCGCCAGUACUACAGAAAUGUAGUUGACGAGGAGGAGGUUUAUCGGAUUUUCGGCGGAUGCCUCCAAA [A14U A52G] | 1.88e-05 ± 1.8e-05 |

Variants of: B1
Test: self-cleavage kobs at 2500 uM GlcN6P; higher = faster cleavage; RNA array
Settings: with glucosamine-6-phosphate
Procedure, shortened: as §1

| Variant | self-cleavage kobs at 2500 uM GlcN6P [s⁻¹] |
| --- | --- |
| AUAAAAGCGCCAGGACUACAGAAAUGUAGUUGACGAGGAGGAGGUUUAUCGAAUUUUCGGCGGGUGCCUCCAAA [A14G A64G] | 0.0543 ± 0.038 |
